Reference: patent US10285966B2, “10-hydroxy-cis-12-octadecenoic acid alkyl ester and use thereof” (NITTO PHARMACEUTICAL INDUSTRIES, LTD., priority 2015, dated 2019)
Entries after “also recorded” stand apart in the source; their conditions may differ.

Test: Sensory evaluation of flavor (taste test) by 10 panelists
Settings: for total evaluation / Five tastes: bitter taste / Five tastes: saltiness / Five tastes: sour taste / Five tastes: sweetness / Five tastes: umami taste / acridity / oil odor: 5 mg sample ingested, average score of 10 panelists; for total evaluation: delicious (5 points) - brackish (1 point); for Five tastes: bitter taste / Five tastes: saltiness / Five tastes: sour taste / Five tastes: sweetness / Five tastes: umami taste: strong (5 points) - weak (1 point); for acridity / oil odor: weak (5 points) - strong (1 point)
Protocol: A sensory evaluation of the flavor of compound of Example 1, and HYA of Comparative Example was performed by 10 panelists (hereinafter to be referred to as taste test). The panelists ingested 5 mg of a sample (sample name was kept secret to the panelists during the test), evaluated five tastes (umami taste, bitter taste, sour taste, saltiness, sweetness) respectively for the acridity and oil odor, and made total evaluation.
Each evaluation was marked in the following 5 grades and an average score of the 10 panelists was calculated.
Five tastes (umami taste, bitter taste, sour taste, saltiness, sweetness): […]

[1] = taste test, result as worded in text

Structure (SMILES): CCCCC/C=C\CC(O)CCCCCCCCC(=O)OCC (stereo not drawn) [Example 1, ethyl 10-hydroxy-cis-12-octadecenoate]
- total evaluation: 3.5 points
- Five tastes: bitter taste: 2.5 points
- Five tastes: saltiness: 2.0 points
- Five tastes: sour taste: 1.5 points
- Five tastes: sweetness: 3.0 points
- Five tastes: umami taste: 3.0 points
- acridity: 3.0 points
- oil odor: 3.5 points
- acridity (in words) [1]: remarkably reduced acridity; also recorded: no acridity
- oil odor (in words) [1]: somewhat reduced oil odor
- total evaluation (in words) [1]: high
- umami taste (in words) [1]: strong umami taste

Structure (SMILES): CCCCC/C=C\CC(O)CCCCCCCCC(=O)O (stereo not drawn) [HYA, 10-hydroxy-cis-12-octadecenoic acid]
- total evaluation: 1.5 points
- Five tastes: bitter taste: 3.5 points
- Five tastes: saltiness: 1.5 points
- Five tastes: sour taste: 1.5 points
- Five tastes: sweetness: 1.0 points
- Five tastes: umami taste: 1.5 points
- acridity: 1.0 points
- oil odor: 3.0 points
- acridity (in words) [1]: strong acridity
- oil odor (in words) [1]: moderate oil odor
